Laboratory results: PubChem BioAssay AID2685 (National Center for Advancing Translational Sciences (NCATS), 2010)
The other results are listed elsewhere or left out. Further columns of the screen follow, without active or inactive calls. The list favours compounds with an active or inconclusive main result. Words in brackets tell the shape of the fitted curve; partial curves, single points and poor fits give uncertain potencies.

Test: qHTS Assay for Lipid Storage Modulators in Drosophila S3 Cells;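 on cell number change: cells counted by Cell Tracker Red CMTPX staining in the red channel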
Conditions: BODIPY lipid droplet fluorescence, 18-24 h; for cell number change: measured here: cell count max response, cells fed with added oleic acid
Outline: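 Drosophila S3 cells got compounds at several concentrations plus oleic acid (400 uM solution). Laser-scanning cytometry with 488 nm excitation read lipid droplets at 500-530 nm and cells at 575-640 nm. Percent activity was relative to 20 uM Triacsin C.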

[1] = measured here: cell number channel AC50, cells fed with added oleic acid
[2] = measured here: lipid fluorescence (Fed channel) AC50, cells fed with added oleic acid

With `CCc1cc2c(=O)n(CCC(C)C)c(=S)[nH]c2s1` the cell number change was 38.6%, the AC50 [1] was 4.11 µM [rising, full curve, poor fit] and the AC50 [2] was 2.06 µM [rising, partial curve].

`CN(C)CC(C)(C)CNS(=O)(=O)c1ccc(Cl)c(Cl)c1` gave a cell number change of 2.07%.

With `Cc1ccc(N2C(=O)CC(C3CCCO3)C2=O)cc1` (centres undefined) the AC50 [1] was 6.51 µM [falling, single point].

For `Cc1cccc(OCC(=O)N/N=C/CC(C)c2ccccc2)c1C` (centres undefined), the cell number change was -8.73% and the AC50 [2] was 6.51 µM [rising, single point].

With `CC(=O)c1ccc(NC(=O)C(C)Sc2nnc3ccccn23)cc1` (centres undefined) the cell number change was 11.9% and the AC50 [2] was 29.1 µM [rising, single point].

With `COc1ccc(NS(=O)(=O)c2cccc(C(=O)NCc3ccccc3CN3CCCC3)c2)cc1` the cell number change was -6.01% and the AC50 [2] was 0.0291 µM [falling, full curve, poor fit].

With `CCOC(=O)c1c(-c2cccc([N+](=O)[O-])c2)csc1NC(=O)C1CCCCC1` the cell number change was -53.8%, the AC50 [1] was 18.4 µM [falling, single point] and the AC50 [2] was 20.6 µM [falling, partial curve].

For `COc1ccc(NC(=O)NNS(=O)(=O)c2cc(C)ccc2C)cc1OC`, the cell number change was 40.6%, the AC50 [1] was 2.91 µM [rising, full curve] and the AC50 [2] was 29.1 µM [rising, partial curve].

For `COc1cc(/C=C2\SC(N)=NC2=O)ccc1O`, the cell number change was -25.3%.

With `O=C(CSc1ncn[nH]1)Nc1ccccc1-c1ccccc1` the cell number change was 30.5%, the AC50 [1] was 1.03 µM [rising, full curve, poor fit] and the AC50 [2] was 3.66 µM [falling, partial curve, poor fit].

For `N#C/C(=C\C=C\c1ccccc1[N+](=O)[O-])C(=O)NCc1ccccc1`, the cell number change was -19.2% and the AC50 [1] was 0.0731 µM [falling, full curve, poor fit].

In the case of `O=C(Nc1ccc2c(c1)OCCO2)c1cccc(S(=O)(=O)N2CCOCC2)c1`, the cell number change is reported as 3.5% and the AC50 [2] is reported as 0.259 µM [rising, full curve, poor fit].

In the case of `CC1CCC(NC(=O)C2CCN(c3cnccn3)CC2)CC1` (centres undefined), the AC50 [1] is reported as 1.3 µM [rising, partial curve].

In the case of `Cc1ccc(NC(=O)c2cc(C(=O)c3cc(Cl)ccc3O)cn(-c3ccc(C)cc3)c2=O)cc1`, the cell number change is reported as 21.6% and the AC50 [2] is reported as 29.1 µM [rising, single point].

In the case of `CC(=O)c1c(N2CCN(C(=O)c3ccco3)CC2)nc(=S)n(-c2ccccc2)c1C`, the cell number change is reported as 6% and the AC50 [2] is reported as 0.0651 µM [falling, full curve, poor fit].

With `O=C(N[C@@H](Cc1ccccc1)c1nc2ccccc2[nH]1)c1cc([N+](=O)[O-])ccc1Cl` the cell number change was -12% and the AC50 [2] was 14.6 µM [rising, partial curve].

For `CCOC(=O)c1cc(C#N)c(NCc2ccccc2)nc1C`, the cell number change was 1.42% and the AC50 [2] was 1.84 µM [rising, partial curve].

With `CSc1c(C#N)c(N)nc2sc(C(=O)c3ccccc3)c(N)c12` the cell number change was 57.4%, the AC50 [1] was 29.1 µM [rising, single point] and the AC50 [2] was 4.61 µM [falling, full curve, poor fit].

In the case of `O=C(CCC(=O)c1ccc(F)cc1)NCC1(N2CCCCC2)CCCCC1`, the cell number change is reported as -0.245%.

For `CN(C)S(=O)(=O)c1ccc2c(c1)nc(CCC(=O)NCCc1ccc(Cl)cc1)n2C`, the cell number change was 12.1%.

With `O=C(CSc1nc(NS(=O)(=O)c2ccccc2)cc(=O)[nH]1)Nc1ccc(F)cc1` the cell number change was -38.5% and the AC50 [1] was 23.1 µM [falling, partial curve].

`CC(C)Nc1nc(-c2ccccc2)nnc1-c1ccccc1` showed a cell number change of -12.3%.

For `Cc1oc(-c2ccccc2F)nc1CS(=O)(=O)CC(=O)N1CCN(c2ccccc2)CC1`, the cell number change was -13.7% and the AC50 [2] was 0.82 µM [rising, single point].

In the case of `COc1cc(/C=C/C(=O)CC(=O)/C=C/c2ccc(O)c(OC)c2)ccc1O`, the cell number change is reported as -86.3%, the AC50 [1] is reported as 18.4 µM [falling, single point] and the AC50 [2] is reported as 16.4 µM [falling, single point].

With `O=c1c(Oc2ccccc2F)coc2cc(OCc3cnn(-c4ccccc4)c3)ccc12` the cell number change was -48.8%, the AC50 [1] was 25.9 µM [falling, single point] and the AC50 [2] was 0.103 µM [falling, full curve, poor fit].

With `O=C(Nc1ccccc1C(F)(F)F)NC1CCCCC1` the cell number change was 25.4%.

`Cc1cc(C(=O)CCC(=O)NCc2ccccc2F)c(C)s1` showed a cell number change of 9.64%.

In the case of `O=C(NCc1ccc(Cl)cc1)c1ccc(CSc2nc3ccncc3[nH]2)cc1`, the cell number change is reported as 5.98% and the AC50 [2] is reported as 0.116 µM [falling, full curve, poor fit].

In the case of `CCCCC(CC)C(=O)Nc1ccccc1C#N` (centres undefined), the AC50 [1] is reported as 4.61 µM [rising, single point].

In the case of `O=C(Nc1cccnc1)Nc1cccc(F)c1`, the cell number change is reported as -14.9% and the AC50 [2] is reported as 5.17 µM [rising, full curve, poor fit].

In the case of `CC(C)CN(C(=O)CN1CCN(c2cccc(Cl)c2)CC1)c1c(N)n(CC(C)C)c(=O)[nH]c1=O`, the cell number change is reported as -17.8%, the AC50 [1] is reported as 4.11 µM [falling, partial curve] and the AC50 [2] is reported as 4.11 µM [falling, partial curve].

For `COc1ccc(C(=O)N2CCC(n3c(C)nc4cc(F)ccc43)CC2)cc1OC`, the cell number change was 8.94% and the AC50 [2] was 8.2 µM [falling, partial curve, poor fit].

For `COC(=O)c1nn(-c2ccc(-c3ccccc3)cc2)cc1O`, the cell number change was -11.6%.

With `COc1ccc(-c2cc(C(=O)Nc3cc(Br)ccc3O)no2)cc1` the AC50 [2] was 1.84 µM [falling, partial curve].

For `Cc1ccc(C(=O)N/C(=C/c2ccc(-c3cc(C(F)(F)F)ccc3Cl)o2)C(=O)NCc2cccnc2)cc1`, the cell number change was 6.01% and the AC50 [2] was 1.3 µM [rising, full curve, poor fit].

For `Cc1cc(C)c(OCCCCN2CCNCC2)c(C)c1`, the cell number change was -6.82% and the AC50 [2] was 29.1 µM [rising, single point].

`CC1CCCCN1Cc1c(O)ccc2c(=O)c(-c3nc4ccccc4s3)c(N)oc12` (centres undefined) gave a cell number change of 18.8%.

For `CN1/C(=C\C(=O)Nc2cccc(Cl)c2)C(C)(C)c2ccccc21`, the cell number change was -28.7% and the AC50 [2] was 16.4 µM [falling, single point].

In the case of `CCOc1ccc(Cc2nnc(SCC(N)=O)n2C)cc1`, the cell number change is reported as -34.6%, the AC50 [1] is reported as 0.731 µM [falling, full curve] and the AC50 [2] is reported as 6.51 µM [falling, single point].

With `COc1ccc(Cn2c(O)c(/C=C3/C=CC=N3)c(=O)[nH]c2=O)cc1` the cell number change was -1.38% and the AC50 [2] was 7.31 µM [rising, partial curve, poor fit].

In the case of `COc1ccc(O)c(/C=N/N2CCCCC2)c1`, the AC50 [1] is reported as 6.51 µM [falling, partial curve, poor fit].

With `COC(=O)N/N=C\c1ccccc1OC/C=C/c1ccccc1` the AC50 [2] was 6.51 µM [rising, single point].

For `CC1=C(C(=O)NCCN2CCOCC2)C2(CCC(C)CC2)OC1=O` (centres undefined), the cell number change was -22.4% and the AC50 [2] was 23.1 µM [falling, partial curve].

With `COc1ccccc1NC(=O)Cn1c(CCC(=O)O)ccc1-c1ccc(C)cc1` the cell number change was 6.87% and the AC50 [2] was 0.00461 µM [falling, full curve, poor fit].

In the case of `Cc1ccc(S(=O)(=O)CC2CSc3nc4ccccc4n32)cc1` (centres undefined), the cell number change is reported as -64.5%, the AC50 [1] is reported as 18.4 µM [falling, single point] and the AC50 [2] is reported as 5.8 µM [falling, full curve].

In the case of `CC(=O)c1cccc(NC(=O)NCCc2ccc(Cl)cc2)c1`, the cell number change is reported as 2.48%.

For `CC(=O)c1cccc(NC(=O)CCNS(=O)(=O)c2cccc3nonc23)c1`, the AC50 [1] was 0.517 µM [falling, single point] and the AC50 [2] was 0.651 µM [falling, single point].

For `CCn1c(SCC(=O)N/N=C/c2ccc(C)s2)nc2ccccc21`, the cell number change was 12.4% and the AC50 [2] was 23.1 µM [falling, partial curve].

For `Cn1c(CNC(=O)c2ccco2)nnc1SCC(=O)Nc1c(F)cc(F)cc1Br`, the cell number change was -12.9% and the AC50 [2] was 1.84 µM [rising, single point].

In the case of `O=C(CN(c1ccccc1)S(=O)(=O)c1ccccc1[N+](=O)[O-])Nc1cccnc1`, the cell number change is reported as 13.7% and the AC50 [2] is reported as 0.13 µM [rising, full curve, poor fit].

In the case of `Cc1cccc(NC(=O)c2sc(-c3ccccc3)nc2-c2ccc([N+](=O)[O-])cc2)c1`, the cell number change is reported as 46.3%, the AC50 [1] is reported as 29.1 µM [rising, single point] and the AC50 [2] is reported as 29.1 µM [falling, single point].

For `C=CCNC(=O)c1ccccc1NS(=O)(=O)c1ccc(SC)cc1`, the cell number change was 124%, the AC50 [1] was 18.4 µM [rising, partial curve] and the AC50 [2] was 18.4 µM [rising, partial curve].

Work on `COc1ccccc1N1CCN(C(=O)COc2ccc(C)cc2Br)CC1` yielded a cell number change of 17.7%.

Work on `CC1CCN(C(=O)CSc2nnc(-c3cc4ccccc4cc3O)n2Cc2ccco2)CC1` yielded a cell number change of -4.26%.

In the case of `COC(=O)c1[nH]c2cc(OC)ccc2c1NC(=O)CN1CCN(c2cccc(C)c2)C(C)C1` (centres undefined), the cell number change is reported as -37.1% and the AC50 [1] is reported as 20.6 µM [falling, partial curve, poor fit].

For `Cn1ncc(Cl)c1C(=O)NCc1ccco1`, the cell number change was -13.3% and the AC50 [2] was 6.51 µM [falling, single point].

With `CCC(C(=O)OCC(=O)Nc1ccc(C(N)=O)cc1)c1ccccc1` (centres undefined) the cell number change was 28.6%, the AC50 [1] was 0.82 µM [rising, full curve, poor fit] and the AC50 [2] was 6.51 µM [rising, partial curve, poor fit].

With `C/C(=N\NC(=O)c1ccn(C)n1)c1ccc(NC(=O)C2CCCC2)cc1` the cell number change was -0.959% and the AC50 [2] was 0.103 µM [falling, full curve, poor fit].

For `CCNc1ccc(Br)cc(C(=O)/C=C/c2ccc(Cl)cc2)c1=O`, the cell number change was -75.5%, the AC50 [1] was 18.4 µM [falling, partial curve] and the AC50 [2] was 14.6 µM [falling, partial curve].
